Experimental findings from PubChem BioAssay AID2685 (National Center for Advancing Translational Sciences (NCATS), 2010) are described below.

This assay is described as follows: qHTS Assay for Lipid Storage Modulators in Drosophila S3 Cells.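 For cell number change: cells counted by Cell Tracker Red CMTPX staining in the red channel.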 The settings on record: BODIPY lipid droplet fluorescence, 18-24 h; for cell number change: measured here: cell count max response, cells fed with added oleic acid. Summed up:
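Drosophila S3 cells got compounds at several concentrations plus oleic acid (400 uM solution). Laser-scanning cytometry with 488 nm excitation read lipid droplets at 500-530 nm and cells at 575-640 nm. Percent activity was relative to 20 uM Triacsin C.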
On the technique in general: qHTS replaces the single test concentration by a dilution series.

Where [1] appears, read: measured here: lipid fluorescence (Fed channel) AC50, cells fed with added oleic acid.
The mark [2] stands for this setting: measured here: cell number channel AC50, cells fed with added oleic acid.

The other results are listed elsewhere or left out. These are further read-outs of the screen, such as a control signal, another cell line or another target. No call is given for them. Compounds called inactive in the main read-out are mostly missing here. The note in brackets gives the kind of curve behind each potency; many fits are weak.

For orientation: AC50 means the concentration giving half of the maximal activity seen. Regarding `Cc1ccc(CNC(=O)CN(C)C2=NS(=O)(=O)c3ccccc32)cc1`, the cell number change was -7.91%. Under setting [1], the AC50 is 6.51 µM [falling, single point].

Take `CC(=O)N1CC(C)Sc2ccc(S(=O)(=O)NCc3ccccc3Cl)cc21` (stereo not drawn): the cell number change was 4.42%. Further, under setting [1], the AC50 was 29.1 µM [falling, single point]. Regarding `N#C/C(=C\c1ccncc1)c1nc2c(s1)CCCC2`, the cell number change was 66%.

Regarding `Cc1cccc(N(O)C(=O)Nc2cccc(Cl)c2)c1`, the cell number change was -21.7%. Consider `Cc1cccc(NC(=O)C(=O)NCc2ccc3c(c2)OCO3)c1C`, for which the cell number change is 23.2%. The AC50 under setting [1] was 1.84 µM [rising, partial curve, poor fit].

With `O=c1cc(-c2ccncc2)oc2c1ccc1ccccc12`, the cell number change is -13.8%. The AC50 under setting [1] is 29.1 µM [falling, single point]. On to `CC(C)(C)C(=O)OCc1nc(-c2ccc(O)c(O)c2)cs1`, for which the cell number change was -2.24%. Moreover, the half-maximal activity concentration (AC50) under setting [1] is 32.6 µM [falling, single point]. For the compound `O=C(Nc1ccc(C2=NCCN2)cc1)c1ccc(Cl)c(C(=O)Nc2ccc(C3=NCCN3)cc2)c1`, the cell number change stood at 79.4%. Besides, the half-maximal activity concentration (AC50) under setting [2] is 1.16 µM [rising, full curve]. Also, the AC50 under setting [1] was 1.64 µM [rising, full curve]. Turning to `COc1ccccc1N(CCC#N)C(=O)CSc1nnc2ccccn12`, the cell number change is -26%. Further, the AC50 under setting [2] is 0.82 µM [falling, full curve, poor fit]. In addition, the concentration at half-maximal activity (AC50) under setting [1] is 1.3 µM [falling, full curve].

On to `COc1cccc(-n2cnc3scc(-c4cccs4)c3c2=O)c1`, for which the cell number change was -13.4%. Take `Cc1cc(C)c(C(=O)NCC2CCCO2)c(C)c1C(=O)NCC1CCCO1` (stereo not drawn): the cell number change is -0.901%.

As for `O=S(=O)(c1cnccc1N1CCN(/N=C/c2ccccc2)CC1)N1CCCCC1`, the cell number change was -31.9%. Moreover, the AC50 under setting [2] was 8.2 µM [falling, partial curve, poor fit]. For `COc1ccc(-c2oc3ccccc3c(=O)c2OC(C)=O)cc1`, the cell number change is -29.6%. In addition, the AC50 under setting [2] is 4.11 µM [falling, full curve, poor fit]. Also, under setting [1], the half-maximal activity concentration (AC50) is 3.26 µM [falling, partial curve, poor fit]. As for `CCNc1nc(NCC)n2c(SCC(=O)c3ccccc3F)nnc2n1`, the cell number change is 29.1%. For the same compound, the AC50 under setting [1] was 6.51 µM [falling, single point]. `CC(=O)Nc1cccc(NC(=O)C2CCCN2C(=O)Nc2cccc(F)c2)c1` (stereo not drawn): the cell number change was determined as 5.78%. For the same compound, under setting [1], the AC50 was 29.1 µM [rising, single point]. For `Cc1cc(C)n2nc(N)c(N=Nc3ccc(Cl)cc3)c2n1`, the cell number change was 17%. Further, under setting [1], the AC50 was 1.84 µM [rising, full curve]. In the case of `Cc1ccc(NC(=O)C2CCCN2C(=O)OCc2ccccc2)c(O)c1` (stereo not drawn), the cell number change was 21%. Besides, under setting [1], the AC50 is 0.146 µM [rising, full curve, poor fit]. Take `Cc1cc(Cl)ccc1NC(=O)C(=O)N/N=C/c1ccc2c(c1)OCO2`: the cell number change was -4.78%. The half-maximal activity concentration (AC50) under setting [1] was 6.51 µM [rising, single point]. Take `CN(C)c1ccc(C(=O)OCC(=O)NC2CCCCCC2)cc1`: under setting [1], the AC50 was 6.51 µM [rising, single point]. Consider `CC(=O)N1c2ccc(S(=O)(=O)NCc3ccccc3Cl)cc2CC1C` (stereo not drawn), for which, under setting [1], the AC50 was 5.17 µM [falling, single point].

With `NC(=NCCCCCCN=C(N)/N=C(\N)Nc1ccc(Cl)cc1)/N=C(\N)Nc1ccc(Cl)cc1`, the cell number change is -27.4%. Moreover, under setting [1], the AC50 is 29.1 µM [falling, single point]. As to `COc1cc(CCCN2CCNC[C@@H]2Cc2ccc(O)cc2)cc(OC)c1OC`, the cell number change worked out at 23.6%. Also, under setting [1], the AC50 was 14.6 µM [rising, single point]. Take `O=C(/C=C/c1cccc(Cl)c1)NCc1cccs1`: the cell number change amounted to 37.5%. Under setting [2], the AC50 is 1.46 µM [rising, single point]. For the same compound, under setting [1], the AC50 is 29.1 µM [rising, single point]. With `COc1ccc(NC(=O)CC(C)=O)c(OC)c1`, the cell number change was -0.131%. Turning to `C/C(=N\Nc1ccc(S(=O)(=O)Nc2ccccc2)cc1[N+](=O)[O-])c1ccncc1`, the cell number change is -23.9%. For the same compound, under setting [1], the AC50 was 0.651 µM [falling, full curve]. Take `Cc1ccc(S(=O)(=O)NC(CC(=O)O)c2cccs2)cc1` (stereo not drawn): the cell number change was -1.22%. For the same compound, under setting [1], the AC50 was 0.00461 µM [falling, full curve, poor fit]. Regarding `COc1ccc(/C=C2\CN(Cc3ccccc3)C/C(=C\c3ccc(OC)cc3)C2=O)cc1`, the cell number change came out at 12%.

With `O=C(CSc1nnc(NC(=O)c2ccccc2F)s1)NC1CC1`, the cell number change is 11.8%. `O=C(O)c1ccc(-n2ncc3c2/C(=C/c2cccc([N+](=O)[O-])c2)CC3)cc1`: the AC50 under setting [1] is 0.517 µM [falling, full curve]. On to `Cc1cc(C)n(C(=O)/C(C#N)=C/N(C)C)n1`, for which the AC50 under setting [1] is 0.731 µM [rising, single point]. For `COc1ccc(/C=C(\NC(=O)c2ccco2)C(=O)NCCc2nc3ccccc3[nH]2)cc1`, the cell number change is 27.1%. Under setting [1], the AC50 is 0.731 µM [falling, single point]. As to `CCN(CC)c1ccc(/C=C2\CCC(/C=N/NC(=O)c3ccc(=O)n(C)c3)=C2N2CCOCC2)cc1`, the cell number change is -11.4%. For the same compound, the AC50 under setting [1] was 6.51 µM [falling, partial curve]. Turning to `Cc1ccc(CN(c2ccc(C(=O)NCc3ccc4c(c3)OCO4)cc2)S(C)(=O)=O)cc1`, the cell number change was 0.965%. Also, the half-maximal activity concentration (AC50) under setting [2] is 4.11 µM [rising, partial curve, poor fit].

For the compound `Cc1cc(C)c(S(=O)(=O)NCC2CCC(C(=O)NCCCN3CCC(C)CC3)CC2)c(C)c1` (stereo not drawn), the cell number change was -0.33%. Also, under setting [1], the half-maximal activity concentration (AC50) was 0.13 µM [rising, full curve, poor fit]. Turning to `COc1ccccc1C1CC(=O)NC(SCC(=O)Nc2ccccc2)=C1C#N` (stereo not drawn), under setting [1], the AC50 was 0.0058 µM [falling, full curve, poor fit]. Regarding `Nc1cc(Cl)ccc1Oc1ccccc1`, the cell number change is -21%. Turning to `C#CCOCCOCCOCCNc1nc(N2CCOCC2)nc(N2CCN(C(=O)CCCCCCCCCCNC(=O)[C@H](CO)n3cc(CCCCCN)nn3)CC2)n1`, the cell number change is -10.7%. The AC50 under setting [1] is 25.9 µM [falling, partial curve, poor fit]. As for `CCn1c(SCC(=O)NCc2ccco2)nnc1-c1ccc(N)cc1`, the cell number change is -31.1%. The concentration at half-maximal activity (AC50) under setting [2] was 3.66 µM [falling, full curve]. For `c1coc(-c2nnc(-c3ccc4c(c3)OCO4)o2)c1`, the cell number change is -18.8%. Further, the AC50 under setting [1] is 11.6 µM [rising, partial curve, poor fit]. Turning to `Cc1[nH]nc(N2CCCCCC2)c1[N+](=O)[O-]`, the cell number change was -0.486%. Besides, the AC50 under setting [1] was 7.31 µM [rising, single point]. As for `CC(C)(C)NC(=O)C1N(c2cccnc2)C(=O)C2C(C(=O)Nc3ccccc3F)C3(C)C=CC21O3` (stereo not drawn), the cell number change was determined as 4.5%. Consider `CNC(=O)c1ccsc1NC(=O)c1ccc(S(=O)(=O)N2CCCc3ccccc32)cc1`, for which the cell number change was 12.7%. Consider `NC(=O)N/N=C/c1ccc(-c2ccc([N+](=O)[O-])cc2)o1`, for which the cell number change turned out to be 37.1%. Moreover, under setting [2], the AC50 was 1.84 µM [rising, partial curve]. The half-maximal activity concentration (AC50) under setting [1] was 5.8 µM [rising, full curve]. Consider `N#Cc1cccc(NC(=O)COC(=O)c2ccc3c(=O)n4c(nc3c2)CCC4)c1`, for which the cell number change was determined as 40.6%. For the same compound, under setting [2], the AC50 was 9.2 µM [rising, partial curve]. Consider `NCCSC1CC(=O)N(c2ccc(Cl)c(Cl)c2)C1=O` (stereo not drawn), for which the cell number change is -7.87%. As to `CCOC(=O)C(CCSC)NC(=O)CN` (stereo not drawn), the cell number change is -22.4%. In the case of `Cc1ccc2c(c1)CN1CN2Cc2cc(C)ccc21`, the cell number change was -2.39%. Also, the AC50 under setting [2] was 0.146 µM [rising, full curve, poor fit].

Regarding `CC(=O)Nc1nc2cc(N)ccc2s1`, the cell number change is 0.368%. Besides, the AC50 under setting [1] was 0.517 µM [falling, partial curve, poor fit].

On to `CC(C)Oc1ccc(OCCn2c(S(=O)(=O)O)nc3c(N)ncnc32)cc1`, for which the cell number change came to 16.2%. The AC50 under setting [1] was 29.1 µM [rising, single point]. With `CC(C)N1C(=O)c2ccc(C(=O)O)cc2C1=O`, the cell number change was -26.6%. The concentration at half-maximal activity (AC50) under setting [1] is 8.2 µM [falling, partial curve]. Regarding `CC(C)[C@H](NC(=O)C1CCN(C(=O)[C@H](Cc2ccccc2)NC(=O)OC(C)(C)C)CC1)C(=O)O`, the cell number change came out at 19.8%. Consider `Cc1ccc(C)c(NC(=O)Nn2cnnc2)c1`, for which the cell number change stood at 15.3%. Moreover, the AC50 under setting [1] was 29.1 µM [rising, single point]. Take `O=C(O)c1cccc(NC(=O)C2CCCO2)c1` (stereo not drawn): the cell number change is -97.6%. The AC50 under setting [2] was 25.9 µM [falling, partial curve]. For the compound `COC(=O)Nc1sc2c(c1C(=O)NCc1ccco1)CCCC2`, the cell number change was found to be 37.1%. The half-maximal activity concentration (AC50) under setting [2] was 0.731 µM [rising, full curve]. For the compound `NC(=O)c1nsc(C(=O)N(c2ccccc2F)C(C(=O)NCc2ccc(F)cc2)c2ccc(O)cc2)c1N` (stereo not drawn), the cell number change worked out at 28.2%. For `Cc1cc(N2CCN(C(=O)c3ccco3)CC2)n2nc(C)c(-c3ccc(Cl)cc3)c2n1`, the AC50 by setting is: under setting [2], 0.92 µM [rising, partial curve]; under setting [1], 2.59 µM [rising, partial curve]. For `Cn1c(=O)n(C)c2cc(S(=O)(=O)NCCc3ccccc3)ccc21`, the cell number change was -23.6%. Moreover, the AC50 under setting [1] is 1.03 µM [rising, full curve, poor fit].

For `CC/C(C)=N/Nc1cccc([N+](=O)[O-])c1`, the cell number change stood at 13.9%. In addition, the AC50 under setting [1] was 14.6 µM [rising, partial curve]. On to `O=C(Nc1ccccc1Cl)ON=C1c2ccccc2-c2ccccc21`, for which the half-maximal activity concentration (AC50) under setting [1] is 4.11 µM [falling, partial curve]. Take `Nc1nc(SCC(=O)Nc2cccc(S(=O)(=O)N3CCCCCC3)c2)n[nH]1`: the cell number change was -6.56%. As for `O=C(CSc1nnc(-c2cccs2)n1Cc1ccco1)c1ccc2c(c1)OCO2`, the cell number change was -8.72%. Besides, the AC50 under setting [1] is 0.651 µM [rising, full curve].

Consider `Nc1ccc(-c2nc(-c3ccccc3)nc3ccccc23)cc1`, for which the cell number change was -33.9%. Further, under setting [2], the AC50 is 29.1 µM [falling, single point].

Regarding `COc1ccccc1CNc1nc(C)c(C(C)=O)s1`, the cell number change worked out at 23.5%. Turning to `CCOc1ccccc1C1NC(=O)NC(C)=C1C(=O)OC1CCCC1C` (stereo not drawn), the AC50 under setting [2] was 6.51 µM [rising, single point]. Regarding `N/C(=N\OC(=O)COc1ccc(Cl)cc1)c1cccnc1`, the cell number change was 19.2%.

In the case of `COc1ccc(NC(=O)C2=CCN(S(=O)(=O)c3ccccc3)CC2)cc1OC`, the cell number change worked out at 7.57%. Further, the AC50 under setting [1] was 3.66 µM [rising, full curve, poor fit].
